Measurements as given in PMC5431371, “Crystal structure-based discovery of a novel synthesized PARP1 inhibitor (OL-1) with apoptosis-inducing mechanisms in triple-negative breast cancer” (Scientific Reports, 2016).

Test system: MDA-MB-436 cells
Test: Cell viability assay (MTT)
Format: cell-based
Settings: Homo sapiens; MDA-MB-436 cells (BRAC1 mutant breast cancer); mean ± SD, at least three independent experiments; read-out: Anti-cell viability (IC50, μM) MDA-MB-436
Protocol: Breast cancer cells including MCF-7, MDA-MB-231, MDA-MB-436 and MDA-MB-468 cells were obtained from American Type Culture Collection (ATCC, Manassas, VA, USA). […] MDA-MB-231, MDA-MB-436 and MDA-MB-468 cells were cultured in humidified cell incubator with atmosphere at 37 °C while MCF-7 cells was cultured with 5% CO2 at 37 °C. 5 × 10^3 cells were seeded into each well in 96-well microplates and cultured for 24 h. Then the cells were exposed to different concentrations of OL-1 for 24 h. After drug treatment, the cell viabilities were detected by MTT assay.

IC50: 4.14 ± 1.17 µM
SMILES: CN(C)CCC=C1c2ccccc2COc2ccccc21 [Compound 19b]
